# Source: PubChem BioAssay AID1159584 (Peter MacCallum Cancer Centre, 2016)
# Aim: 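Genes that CDH1-null MCF10A cells selectively depend on to survive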 (primary screen)
# Cells: human MCF10A breast epithelial cells, parental and CDH1-null
# Reagents: siRNA against human genes
# Detection: 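ATP luminescence (CellTiter-Glo) viability per line relative to mean mock wells over all plates, and the ratio of CDH1-null to parental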
# Reading the numbers: CDH1-null / parental viability ratio: higher = CDH1-null cells survive relatively better than parental
# Shown is a random part of about 18,000 deposited reagents. Not all columns of the deposit are shown. The record does not give: the amount of reagent, the time to read-out.
gene,CDH1-null / parental viability ratio
CHUK,0.92
ACKR1 (atypical chemokine receptor 1 (Duffy blood group)),1.29
B3GNT2,0.95
ZNF410 (zinc finger protein 410),0.95
GPR162 (G protein-coupled receptor 162),0.81
CYB5R3 (cytochrome b5 reductase 3),0.85
BOLA3 (bolA family member 3),0.86
CSDC2 (cold shock domain containing C2),0.83
CD163L1 (CD163 molecule like 1),0.82
GHRHR (growth hormone releasing hormone receptor),0.94
"SDR42E1 (short chain dehydrogenase/reductase family 42E, member 1)",0.92
INTS7 (integrator complex subunit 7),0.93
CNTN2 (contactin 2),1.01
UST (uronyl 2-sulfotransferase),1.03
CFAP126 (cilia and flagella associated protein 126),0.85
SLC16A9,1.28
"F2 (coagulation factor II, thrombin)",1.07
TGIF1 (TGFB induced factor homeobox 1),1.17
NAAA (N-acylethanolamine acid amidase),1.04
MELK (maternal embryonic leucine zipper kinase),0.93
CAPN5 (calpain 5),1.18
DIPK1A (divergent protein kinase domain 1A),1.05
HOOK1 (hook microtubule tethering protein 1),0.96
TMEM8B (transmembrane protein 8B),0.98
RBM26 (RNA binding motif protein 26),1.15
SPON1 (spondin 1),1.13
FAM184A (family with sequence similarity 184 member A),1.06
SLC39A6,1.05
CFAP157 (cilia and flagella associated protein 157),1.25

Continued; the last 4 above are carried over.
gene,CDH1-null / parental viability ratio
SPON1 (spondin 1),1.13
FAM184A (family with sequence similarity 184 member A),1.06
SLC39A6,1.05
CFAP157 (cilia and flagella associated protein 157),1.25
TMC5 (transmembrane channel like 5),1.16
HBEGF (heparin binding EGF like growth factor),0.99
C1QTNF7 (C1q and TNF related 7),1.02
SNX4 (sorting nexin 4),0.86
MSH4 (mutS homolog 4),0.74
ZNF177 (zinc finger protein 177),1.05
GPER1 (G protein-coupled estrogen receptor 1),1
CCK (cholecystokinin),1.22
OR6C76 (olfactory receptor family 6 subfamily C member 76),1.15
TMEM259 (transmembrane protein 259),0.9
ARL2 (ARF like GTPase 2),0.92
EGR2 (early growth response 2),1.1
TBX21 (T-box transcription factor 21),1.17
FABP3 (fatty acid binding protein 3),0.97
NCF2 (neutrophil cytosolic factor 2),1
PPP1R13B (protein phosphatase 1 regulatory subunit 13B),1.37
FAM241A (family with sequence similarity 241 member A),1.29
MMP21 (matrix metallopeptidase 21),1.55
DUSP19 (dual specificity phosphatase 19),1.34
OTUD3 (OTU deubiquitinase 3),0.94
SPRR3 (small proline rich protein 3),0.66
SLC1A7,1.17
RCHY1 (ring finger and CHY zinc finger domain containing 1),0.97
KRTAP10-4 (keratin associated protein 10-4),1.14
ZMAT1 (zinc finger matrin-type 1),1.22
SSH1 (slingshot protein phosphatase 1),1.24
GATD3 (glutamine amidotransferase class 1 domain containing 3),0.97
MACF1 (microtubule actin crosslinking factor 1),1.12
OR5M3 (olfactory receptor family 5 subfamily M member 3),1.05
NAF1 (nuclear assembly factor 1 ribonucleoprotein),0.97
JMJD7-PLA2G4B (JMJD7-PLA2G4B readthrough),1.03
MAPK8 (mitogen-activated protein kinase 8),1.18
PHKB (phosphorylase kinase regulatory subunit beta),0.87
SPIRE1 (spire type actin nucleation factor 1),0.96
CLVS1 (clavesin 1),0.86
TMPRSS9 (transmembrane serine protease 9),1.38
LUM (lumican),1.15
DPH5 (diphthamide biosynthesis 5),0.96
TRIM21 (tripartite motif containing 21),0.96
